From a melanoma drug combination screen (doi:10.1371/journal.pone.0140310); values rounded.

Drugs:
KU-0063794 (0.1 µM): COc1ccc(-c2ccc3c(N4CCOCC4)nc(N4C[C@@H](C)O[C@@H](C)C4)nc3n2)cc1CO
ENMD-2076 (0.2 µM): Cc1cc(Nc2cc(N3CCN(C)CC3)nc(/C=C/c3ccccc3)n2)n[nH]1
BI-D1870 (1 µM): CC(C)CCN1c2nc(Nc3cc(F)c(O)c(F)c3)ncc2N(C)C(=O)C1C (stereo unspecified)
PD173074 (0.5 µM): CCN(CC)CCCCNc1ncc2cc(-c3cc(OC)cc(OC)c3)c(NC(=O)NC(C)(C)C)nc2n1
SNS-032 (0.05 µM): CC(C)(C)c1cnc(CSc2cnc(NC(=O)C3CCNCC3)s2)o1
stibogluconate (10 µM): O=C(O)[C@@H]1[O][Sb](=[O])([O][Sb]2(=[O])[O][C@H]([C@H](O)CO)[C@H](O)[C@H](C(=O)O)[O]2)[O][C@H]([C@H](O)CO)[C@@H]1O (stereo partly specified)
MK-2206 (2 µM): NC1(c2ccc(-c3nc4ccn5c(=O)[nH]nc5c4cc3-c3ccccc3)cc2)CCC1
bexarotene (10 µM): C=C(c1ccc(C(=O)O)cc1)c1cc2c(cc1C)C(C)(C)CCC2(C)C
PLX4720 (0.4 µM): CCCS(=O)(=O)Nc1ccc(F)c(C(=O)c2c[nH]c3ncc(Cl)cc23)c1F
cediranib (2 µM): COc1cc2c(Oc3ccc4[nH]c(C)cc4c3F)ncnc2cc1OCCCN1CCCC1
NVP-TAE684 (0.4 µM): COc1cc(N2CCC(N3CCN(C)CC3)CC2)ccc1Nc1ncc(Cl)c(Nc2ccccc2S(=O)(=O)C(C)C)n1
AZD7762 (0.1 µM): NC(=O)Nc1cc(-c2cccc(F)c2)sc1C(=O)N[C@H]1CCCNC1
CX-4945 (2 µM): O=C(O)c1ccc2c(c1)nc(Nc1cccc(Cl)c1)c1ccncc12
KU-55933 (5 µM): O=c1cc(-c2cccc3c2Sc2ccccc2S3)oc(N2CCOCC2)c1

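Human melanoma cells were exposed to two drugs together for 72 h in 1,536-well plates and read by automated microscopy after fixing and staining. Values are the number of DAPI-stained nuclei as a percentage of the DMSO control: 100 is no effect, lower means fewer cells. Every drug was used at one fixed concentration, the higher of two screened. No replicate spread is given; individual values may be noisy.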
An unselected part of the screen is shown.

| # | Combination | WM451Lu | WM3619 | COLO 792 |
|---|---|---|---|---|
| 1 | bexarotene and PD173074 | 76.4 | 93.8 | 92.6 |
| 2 | SNS-032 and PLX4720 | 45.2 | 70.2 | 73.8 |
| 3 | MK-2206 and AZD7762 | 73.1 | 22.5 | 31.3 |
| 4 | BI-D1870 and CX-4945 | 62.5 | 52.0 | 54.0 |
| 5 | PD173074 and CX-4945 | 93.7 | 87.5 | 84.7 |
| 6 | BI-D1870 and bexarotene | 87.5 | 54.0 | 71.9 |
| 7 | KU-55933 and stibogluconate | 84.1 | 87.3 | 78.5 |
| 8 | NVP-TAE684 and CX-4945 | 71.8 | 74.4 | 79.5 |
| 9 | NVP-TAE684 and stibogluconate | 79.6 | 71.0 | 73.4 |
| 10 | CX-4945 and bexarotene | 59.7 | 65.8 | 61.7 |
| 11 | MK-2206 and KU-55933 | 98.0 | 118 | 43.7 |
| 12 | KU-55933 and ENMD-2076 | 78.6 | 77.3 | 91.3 |
| 13 | KU-0063794 and stibogluconate | 108 | 101 | 78.8 |
| 14 | bexarotene and SNS-032 | 86.7 | 84.5 | 77.4 |
| 15 | MK-2206 and BI-D1870 | 92.7 | 62.0 | 49.9 |
| 16 | PD173074 and ENMD-2076 | 84.0 | 80.9 | 74.6 |
| 17 | CX-4945 and KU-55933 | 86.9 | 62.6 | 57.0 |
| 18 | cediranib and stibogluconate | 82.7 | 140 | 70.1 |
| 19 | KU-0063794 and CX-4945 | 97.2 | 65.7 | 54.3 |
| 20 | AZD7762 and stibogluconate | 68.3 | 24.9 | 36.1 |

2 of the entries, repeated:

Combination	WM451Lu	WM3619	COLO 792
KU-0063794 and stibogluconate	108	101	78.8
BI-D1870 and CX-4945	62.5	52.0	54.0